Measurements reported in patent US20160347841A1 (UNIVERSIDAD NACIONAL AUT NOMA DE M XICO, published 2016).
No constants are given. Whether binding was seen depends on the method and setting. Some entries that bind do so weakly or less than the wild type.

Amino acid sequences for entries named in this document (tags omitted). A change or cut given only in a name is not applied to a line headed by its entry. Chains listed by the source or under a name are the forms on record and can include a tag or linker. Residues count along the entry.
UniProt O60449, residues 28-1722: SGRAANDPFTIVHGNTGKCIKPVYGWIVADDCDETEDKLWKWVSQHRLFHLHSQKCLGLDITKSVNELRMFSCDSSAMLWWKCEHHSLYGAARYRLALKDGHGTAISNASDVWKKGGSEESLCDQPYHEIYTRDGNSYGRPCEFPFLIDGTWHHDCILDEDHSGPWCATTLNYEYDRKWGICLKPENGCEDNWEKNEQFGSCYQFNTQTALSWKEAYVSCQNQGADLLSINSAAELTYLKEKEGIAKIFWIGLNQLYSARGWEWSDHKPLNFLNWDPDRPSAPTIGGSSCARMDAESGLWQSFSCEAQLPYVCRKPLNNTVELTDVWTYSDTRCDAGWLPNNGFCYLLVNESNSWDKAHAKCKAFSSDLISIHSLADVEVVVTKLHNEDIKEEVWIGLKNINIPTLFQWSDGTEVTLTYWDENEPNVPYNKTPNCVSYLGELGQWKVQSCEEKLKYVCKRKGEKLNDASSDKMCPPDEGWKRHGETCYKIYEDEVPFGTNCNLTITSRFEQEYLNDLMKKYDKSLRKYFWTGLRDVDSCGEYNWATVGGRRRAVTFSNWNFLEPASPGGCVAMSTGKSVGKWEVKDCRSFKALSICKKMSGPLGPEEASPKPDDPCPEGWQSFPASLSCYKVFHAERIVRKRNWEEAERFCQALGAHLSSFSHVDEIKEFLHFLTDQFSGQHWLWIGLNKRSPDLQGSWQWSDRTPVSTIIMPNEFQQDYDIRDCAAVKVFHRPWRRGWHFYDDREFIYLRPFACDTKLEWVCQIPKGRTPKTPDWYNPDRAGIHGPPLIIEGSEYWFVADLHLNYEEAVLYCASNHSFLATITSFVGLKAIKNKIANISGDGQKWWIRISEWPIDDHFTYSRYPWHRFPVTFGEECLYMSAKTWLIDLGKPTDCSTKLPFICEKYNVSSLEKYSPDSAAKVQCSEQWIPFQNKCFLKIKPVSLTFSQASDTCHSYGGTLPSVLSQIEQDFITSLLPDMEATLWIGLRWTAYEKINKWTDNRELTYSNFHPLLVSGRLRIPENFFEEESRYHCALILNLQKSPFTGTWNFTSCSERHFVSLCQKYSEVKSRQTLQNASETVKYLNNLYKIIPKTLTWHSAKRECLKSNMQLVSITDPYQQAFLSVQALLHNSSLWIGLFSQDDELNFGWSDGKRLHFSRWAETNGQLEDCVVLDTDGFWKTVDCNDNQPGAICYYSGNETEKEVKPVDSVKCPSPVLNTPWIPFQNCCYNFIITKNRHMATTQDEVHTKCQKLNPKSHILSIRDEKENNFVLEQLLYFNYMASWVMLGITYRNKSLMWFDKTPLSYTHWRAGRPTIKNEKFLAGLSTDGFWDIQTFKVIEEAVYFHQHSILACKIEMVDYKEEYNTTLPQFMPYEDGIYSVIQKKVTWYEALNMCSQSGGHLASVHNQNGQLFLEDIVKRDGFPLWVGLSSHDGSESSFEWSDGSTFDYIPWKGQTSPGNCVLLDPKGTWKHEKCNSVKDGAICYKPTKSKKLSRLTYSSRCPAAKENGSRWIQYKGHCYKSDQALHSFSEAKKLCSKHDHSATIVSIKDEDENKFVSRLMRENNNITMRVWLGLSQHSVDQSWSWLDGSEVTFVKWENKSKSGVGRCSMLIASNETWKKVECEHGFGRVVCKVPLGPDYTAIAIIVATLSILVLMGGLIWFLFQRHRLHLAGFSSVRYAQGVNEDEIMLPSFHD
DEC-205 receptor of Sus scrofa (D6MT50, form named): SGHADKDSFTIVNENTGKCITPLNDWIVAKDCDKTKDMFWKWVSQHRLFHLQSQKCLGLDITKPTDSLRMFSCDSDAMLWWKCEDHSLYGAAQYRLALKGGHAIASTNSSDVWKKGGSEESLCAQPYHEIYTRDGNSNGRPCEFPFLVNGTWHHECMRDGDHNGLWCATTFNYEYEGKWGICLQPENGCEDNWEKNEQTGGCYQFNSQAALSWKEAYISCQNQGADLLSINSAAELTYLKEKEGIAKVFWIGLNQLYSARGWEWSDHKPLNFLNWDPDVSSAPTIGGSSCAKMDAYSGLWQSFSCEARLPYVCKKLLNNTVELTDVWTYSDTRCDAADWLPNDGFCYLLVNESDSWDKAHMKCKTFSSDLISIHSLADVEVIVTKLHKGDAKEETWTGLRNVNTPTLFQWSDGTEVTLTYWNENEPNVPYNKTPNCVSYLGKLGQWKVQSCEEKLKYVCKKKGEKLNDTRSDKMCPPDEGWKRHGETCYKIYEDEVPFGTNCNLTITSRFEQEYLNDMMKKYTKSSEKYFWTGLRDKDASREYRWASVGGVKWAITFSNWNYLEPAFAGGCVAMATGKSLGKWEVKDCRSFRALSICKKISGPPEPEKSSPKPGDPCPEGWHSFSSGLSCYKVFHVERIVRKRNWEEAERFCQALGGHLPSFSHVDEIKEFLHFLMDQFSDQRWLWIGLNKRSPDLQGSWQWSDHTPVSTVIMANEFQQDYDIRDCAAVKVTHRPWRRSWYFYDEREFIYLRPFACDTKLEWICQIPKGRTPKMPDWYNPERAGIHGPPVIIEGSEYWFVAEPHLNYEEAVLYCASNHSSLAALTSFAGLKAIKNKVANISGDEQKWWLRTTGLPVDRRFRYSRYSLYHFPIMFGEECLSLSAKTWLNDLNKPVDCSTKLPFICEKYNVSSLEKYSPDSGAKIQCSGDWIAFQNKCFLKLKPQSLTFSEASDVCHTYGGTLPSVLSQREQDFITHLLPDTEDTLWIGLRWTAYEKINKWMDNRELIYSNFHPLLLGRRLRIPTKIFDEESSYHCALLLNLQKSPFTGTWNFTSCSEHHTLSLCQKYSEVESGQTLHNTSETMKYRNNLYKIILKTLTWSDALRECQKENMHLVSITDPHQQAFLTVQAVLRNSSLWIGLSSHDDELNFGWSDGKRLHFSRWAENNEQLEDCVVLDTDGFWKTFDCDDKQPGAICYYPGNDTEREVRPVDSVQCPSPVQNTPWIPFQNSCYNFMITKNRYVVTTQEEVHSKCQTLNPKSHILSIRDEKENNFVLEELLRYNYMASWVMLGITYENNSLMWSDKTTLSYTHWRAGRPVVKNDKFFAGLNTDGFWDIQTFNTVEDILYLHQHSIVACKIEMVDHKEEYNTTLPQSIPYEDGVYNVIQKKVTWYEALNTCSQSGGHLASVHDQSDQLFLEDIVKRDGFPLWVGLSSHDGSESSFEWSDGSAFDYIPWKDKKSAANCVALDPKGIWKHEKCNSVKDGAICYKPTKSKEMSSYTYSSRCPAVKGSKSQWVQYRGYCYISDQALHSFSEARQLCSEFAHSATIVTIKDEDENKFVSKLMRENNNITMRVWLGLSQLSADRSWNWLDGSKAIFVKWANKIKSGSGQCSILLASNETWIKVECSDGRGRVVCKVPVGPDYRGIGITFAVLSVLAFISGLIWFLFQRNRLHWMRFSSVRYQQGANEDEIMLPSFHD

Tests used:
[1] = target: DEC-205 receptor of Homo sapiens (Homo sapiens) (UniProt O60449); assay: intracellular staining of fixed, permeabilized Jurkat cells, flow cytometry, 26.7 µg/mL antibody
[2] = target: DEC-205 receptor of Sus scrofa (Sus scrofa) (UniProt D6MT50); assay: immunoprecipitation from pig spleen white cell lysate, SDS-PAGE
[3] = target: T1, recombinant CTLD-2 domain of the DEC-205 receptor of Gallus gallus (Gallus gallus); assay: indirect ELISA
T1 sequence: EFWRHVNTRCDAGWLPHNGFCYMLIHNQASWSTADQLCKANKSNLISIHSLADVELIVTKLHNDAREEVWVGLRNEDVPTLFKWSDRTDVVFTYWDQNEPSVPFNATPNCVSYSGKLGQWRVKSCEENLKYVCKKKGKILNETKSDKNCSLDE

[4] = target: DEC-205 receptor of Homo sapiens (Homo sapiens) (UniProt O60449); assay: immunoprecipitation from Jurkat cell lysate, SDS-PAGE
[5] = target: DEC-205 receptor of Homo sapiens (Homo sapiens) (UniProt O60449); assay: immunoprecipitation
[6] = target: DEC-205 receptor of Sus scrofa (Sus scrofa) (UniProt D6MT50); assay: immunoprecipitation
[7] = target: T1, recombinant CTLD-2 domain of the DEC-205 receptor of Gallus gallus (Gallus gallus); assay: indirect ELISA on plate-coated CTLD-2

Measured: binding

B1: murine monoclonal antibody 2F2E8E3B6 anti-CTLD-2 (antibody, IgG2a, V domains shown)
VH: EVQLQQSTAEFVKPGASVKLSCTASGFNIKDTYIHWVKQRPEQGLEWIGRIDPANGNTRYDPKFQGKATMTADTSSNTAYLQLSSLTSEDTAVYYCARYDVTYWGQGTLVTVS
VL: DIVMSQSPSSLAVSAGERVTMSCKSSQSLLNSRTRKNYLAWYQQKPGQSPKLLIYWASTRESGVPDRFTGSGSGTDFTLTISSVRAEDLAVYYCKQSYNLYTFGRGTKLEIK
notes: also called 2F2E8D3B6; AbM 2F2E8E3B6
binds: all assays above

B2: monoclonal antibody 4D12R (antibody, IgG1, V domains shown)
VH: EVQLQQSGADLVKPGASVKLSCTASGFNIKDTYIHWVKQRPEQGLEWIGRIDPANGNTRYDPKFQGKATMTADTSSNTAYLQLSSLTSEDTAVYYCARYDVTYWGQGTLVTVS
VL: EIVLTQSIASLTVSAGERVTMSCKSSQSLLNSRTRKNYLAWYQQKPGQSPKLLIYWASTRESGVPDRFTGSGSGTDFTLTISSVQAEDLAVYYCKQSYNLYTFGGGTKLEIK
binds: [3]
